Results are given in words; binding and its absence hold for the method and conditions named. Binding seen in cells or lysates may run through a third protein. A yes stands for co-enrichment or nearness to the bait. Other partners may have been found. For some assays here: A no says only that the protein was not detected with the bait. For some assays here: Tags and fused reporters may be left off the sequences shown.
B1: MRG15 (protein, UniProt Q9Y0I1 1-424)
chain: MGEVKPAKVENYSTGTDANTLFVDGERVLCFHGPLIYEAKVLKTKPDATPVEYYIHYAGWSKNWDEWVPENRVLKYNDDNVKRRQELARQCGERSKKDNKKGSAKAKKMEQMRNESRASTPSKDSNTSQSTASSTPTTSAGPGSKSEAGSTGTTTTNSTANSTTSRAHRKSTQSTPSTARPGTPSDKKEDPAAAETTEEEGPVAPKKKRMSEQRPSLTGSDVAEKPLPPTTTPSTPTTEPAPCVESEEAYAAKVEVKIKIPDELKHYLTDDWYAVVREHKLLELPAKVTVQQISEQYLAHKKSVKSTSASKEVAINDVLDGIVEYFNVMLGSQLLYKFERTQYADVMQKHPDTPLSELYGSFHLLRLFVRLGSMLSYSALDQQSMQNLLTHVQDFLKFLVKNSSIFFSMSNFINVDPEYVRNAQ
B2: histone chaperone NAP1 (protein, UniProt Q9W1G7 1-370)
chain: MDAPAEGHVDPESCNEIEDEKSGSDCQSMPAYMNSVMRRQYLQQMVKMLPAPVQNRIVFLKNLQLQHLNIEAQFFEDVYKLEQKYQVQYQPLFDKRREIIEGKVDPAEEKPQWKEPESSTDNEADAEHFREALSSLKSIPKDAKGIPGFWLTVFRNTAIMSEMVQPHDEPAIRKLIDISIKYDNGHSYTLEFHFDKNEYFSNSVLTKQYVLKSTVDPNDPFAFEGPEIYKCTGCTINWEKKMNLTVKTIRKKQKHKERGAVRTIVKQVPTDSFFNFFSPPEVPSDQEEVDDDSQQILATDFEIGHFLRARIIPKAVLYYTGDIVDDEDDEDEEEYDENEEDEYDDDDAPPPKGPKSAGIKKQSPNDCPNQ
B3: MAU2/SCC4 (protein, UniProt Q9VFC0 1-632)
chain: MSASTSTSTAASQDACYISLLGLAEYFRTSQPPNIKKCIQCLQALFTFMPPSKVEARTHLQMGQILMAYTKNIDLARQHLEKAWSISEPLPNFDVKFDTASLLAQLHLQTDRNSHQAKAMLRRAVELSQNNVYWHCKLLLQLAQIHASDREYSLASELLAVGAESADEASATYLKVLFLLSRAMILMIERKTNDVLALLNSAGQIIDNNIPNPHQKEYLKVFFLVLQVCYYLALGQVKTVKPSLKQLQMSIQTIMAPNWPSDEAIFGANQLEMFVWLPKEQLYVLVYLVTVSHSMMAGYMDKAQKYTEKALTQIEKLKQQEDKPILSVFKVILLEHIVMCRMVMGNRELAIREIAAARDVCMAAPQRSLLRRHSAQLHCLIGLYSMSTNLFEHAERQFVVCVSETSERDLKLFANLNLAIIYLRTKRDTDLKQILDAVSTENTHTYSSQALMGGFYYVQGLHAFHKNSFHEAKRFLRETLKMANAEDLNRLTSCSLVLLSHVFLSIGNSKESMNMVTPAMQLASKIPDIHVQLWGSAILKDLHRMSKDVQHEKDAYANHVKYSENLIADQRKCVQSAHHELVNWFQGDPPVTSGPPAAPVLLMPESSVTASVPVIASTSTAMQPAGQYGQFY
B4: cohesin subunit SMC1 (protein, UniProt Q9VCD8 1-1238)
chain: MTEEDDDVAQRVATAPVRKPDDETAFLEYIEMENFKSYRGHIVVGPLKQFNAVIGPNGSGKSNFMDAISFVMGEKTSSLRVKRLNDLIHGSSIGKPVSRSCYVTAKFVLNEERHMDFQRAVIGGSSEYRINGESVSSSTYLNKLEKIGINVKAKNFLVFQGAVENIAMKTPKERTALFEEISGSGLLKDDYNRLKQEMIVAEEETQFTYQKKKGIAAERKEAKHEKMEADRYTRLQNEYNEKQVEYQLFRLFHVERDIRKFTSDLEVRQQEVKAVEQRKEAADEILREKKKDAGKITRDLAKIDQEIREFETQMNKRRPLYIKAKEKVTHCKKKLISLQKTLETAREADNAHQSDIRKLEKQLADVEALKKRFEDEIENESQRRGKSVNMEEGLVQEYDRLKQEAEATATQYRSELDSVNREQKSEQDTLDGETNRRASVEESFKKLTLQREEAVKRRDKLMDHIKSSQAALEEQNRIKDELRRDVGTSKEKIAEKQRELEDVRDQLGDAKSDKHEDARRKKKQEVVELFKKQVPGVYDRMINMCQPTHKRYNVAVTKVLGKFMEAIIVDTEKTARHCIQILKEQMLEVETFLPLDYLQVKPLKERLRNISDPRNVRLVFDVLKFEPQEIERAVLFATGNALVCETPEDAMKVAYEIDRSRFDALALDGTFYQKSGLISGGSHDLARKAKRWDEKHMAQLKMQKERLQEELKELVKKSRKQSELATVESQIKGLENRLKYSMVDLESSKKSISQYDNQLQQVQSQLDEFGPKILEIERRMQNREEHIQEIKENMNNVEDKVYASFCRRLGVKNIRQYEERELVMQQERARKRAEFEQQIDSINSQLDFEKQKDTKKNVERWERSVQDEEDALEGLKLAEARYLKEIDEDKEKMEKFKQDKQAKKQAVDDMEEDISKARKDVANLAKEIHNVGSHLSAVESKIEAKKNERQNILLQAKTDCIVVPLLRGSLDDAVRQSDPDVPSTSAAMENIIEVDYSSLPREYTKLKDDSAFKKTHEMLQKDLQSKLDVLERIQTPNMKALQKLDAVTEKVQSTNEEFENARKKAKRAKAAFERVKNERSSRFVACCQHISDAIDGIYKKLARNEAAQAYIGPDNPEEPYLDGINYNCVAPGKRFQPMNNLSGGEKTIAALALLFSTHSFHPAPFFVLDEIDAALDNTNIGKVASYIRDHTTNLQTIVISLKEEFYGHADALVGITPGEGDCLVSNVYIMDLTTFEDT
B5: cohesin subunit SMC3 (protein, UniProt Q9VXE9 1-1200)
chain: MHIKQIIIQGFKSYKDQTVVEPFDKRHNVVVGRNGSGKSNFFYAIQFVLSDEFTHLRPEQRQSLLHEGTGARVISAYVEIIFDNSDNRVPIDKEEIFLRRVIGAKKDQYFLNKKVVPRNEVVNLLESAGFSSSNPYYIVKQGKINQMATAADSYRLKLLREVAGTRVYDERKEESLNLLRETDSKVEKISEYLKTIEDRLQTLEEEKEELKEYQKWDKTRRTLEYIRYETELKDTKKALDELQLQRKSSSDKKKIYNIEIQKAQEKIKDVQKNLKEAKKKVQSTKEERSVLMTEQQQLLREKTKLDLTIVDLNDEVQGDNKSKERADQELKNLKVTIAEREKELDDVKPKYEAMKRKEEDCSRELQLKEQKRKELYAKQGRGSQFSSREDRDKWITNELKSISKQTRDKIAHHAKLVEDLKKDATSEKDLGQKIEEHSSELEQLRLQIDEHNKKYYELKKTKDQHQSMRNELWRKETQMTQQLQTHKEELSRADQALRSMAGKPILNGCDSVRKVLDSFVERGGQSAEIARAYYGPVIENFSCDKTIYTAVEVTAANRLFHHIVESEYEGTQILKEMNKLKLPGEVTFMPLNRLQVKIHDYPDDPDSIPMISKLKYDEQHDKALRYIFGKTLICRNLERATELAKSTGLDCVTLDGDQVSSKGSLTGGYFNTSRSRLEMQKKRTEYTSQIAEFEKKLSKLRNELKSTENNINSIVSEMQKTETKQGKSKDVFEKVQGEIRLMKEELVRIEQYRAPKERSLAQCKASLESMTSTKSSLEAELKQELMSTLSSQDQREIDQLNDDIRRLNQENKEAFTQRMQFEVRKNKLDNLLINNLFRRRDELIQALQEISVEDRKRKLNNCKTELVSAEKRIKKVNSDLEEIEKRVMEAVQLQKELQQELETHVRKEKEAEENLNKDSKQLEKWSTKENMLNEKIDECTEKIASLGAVPLVDPSYTRMSLKNIFKELEKANQHLKKYNHVNKKALDQFLSFSEQKEKLYRRKEELDIGDQKIHMLIQSLEMQKVEAIQFTFRQVAQNFTKVFKKLVPMGAGFLILKTKDNEGDEMEKEVENSDAFTGIGIRVSFTGVEAEMREMNQLSGGQKSLVALALIFSIQKCDPAPFYLFDEIDQALDAMHRKAVANMIHELSDTAQFITTTFRPELLENAHKFYGVRFRNKVSHIDCVTREEAKDFVEDDSTHA

Amino acid sequences for entries named in this document (tags omitted).
UniProt P23696: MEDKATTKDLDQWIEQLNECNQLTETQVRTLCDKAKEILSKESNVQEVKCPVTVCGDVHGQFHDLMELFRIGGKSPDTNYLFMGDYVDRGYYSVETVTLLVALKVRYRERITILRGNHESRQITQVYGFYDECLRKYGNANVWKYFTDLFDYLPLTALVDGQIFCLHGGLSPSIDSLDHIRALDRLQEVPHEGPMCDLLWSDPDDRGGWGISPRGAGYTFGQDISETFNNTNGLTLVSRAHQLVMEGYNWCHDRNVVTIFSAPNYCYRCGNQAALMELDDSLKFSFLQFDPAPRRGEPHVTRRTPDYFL

biological target: T1, cohesin subunit SMC1 (Drosophila (endogenous in embryos and S2 cells)) (UniProt Q9VCD8); test: affinity purification with mass spectrometry; NAP1, SA, SMC1 or PP2A (catalytic subunit) immunopurified from 0-12 hour Drosophila embryo nuclear extract (NAP1 and SA also from S2 cells) with antibodies cross-linked to protein A sepharose; washes with HEMG, 600 mM KCl, 0.1% NP-40; SDS-PAGE, mass spectrometry
T1 sequence: B4 chain

Binder	binding
B1	no binding
B2	binds
B3	binds

biological target: cohesin subunit stromalin (SA) (Drosophila (endogenous in embryos and S2 cells)); test: as above

Binder	binding
B1	no binding
B2	binds
B4	binds
B5	binds
B3	binds

biological target: T2, histone chaperone NAP1 (Drosophila (endogenous in embryos and S2 cells)) (UniProt Q9W1G7); test: as above
T2 sequence: B2 chain

Binder	binding
B1	binds
B4	binds
B5	binds

biological target: protein phosphatase 2A (PP2A) catalytic subunit (Drosophila (endogenous in embryos and S2 cells)) (UniProt P23696); test: as above

Binder	binding
B4	binds
B5	binds
B3	binds
